Data reported in PMC6160412.

Amino acid sequences for entries named in this document (tags omitted). A change or cut given only in a name is not applied to a line headed by its entry.
UniProt P58400: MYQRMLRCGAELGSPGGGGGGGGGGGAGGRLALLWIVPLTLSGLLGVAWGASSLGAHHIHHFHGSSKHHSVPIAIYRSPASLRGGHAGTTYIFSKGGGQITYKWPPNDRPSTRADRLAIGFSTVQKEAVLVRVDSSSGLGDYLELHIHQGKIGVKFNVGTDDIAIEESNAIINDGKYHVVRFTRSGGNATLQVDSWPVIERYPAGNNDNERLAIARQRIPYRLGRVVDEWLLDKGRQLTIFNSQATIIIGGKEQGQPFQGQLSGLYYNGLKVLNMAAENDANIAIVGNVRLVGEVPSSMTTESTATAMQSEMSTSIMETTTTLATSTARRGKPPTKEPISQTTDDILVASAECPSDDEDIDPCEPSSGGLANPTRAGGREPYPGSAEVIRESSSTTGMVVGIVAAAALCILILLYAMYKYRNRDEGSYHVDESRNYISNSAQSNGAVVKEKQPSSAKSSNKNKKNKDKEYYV

Target: GST-fused human Nrxn1β (–S4) LNS domain (human) (UniProt P58400)
Experiment: pull-down; GST-Nrxn1β (–S4) (5 µM) on Glutathione Sepharose FF with NL1 (5 µM) and LRRTM2 at 1:1:1 or 1:1:5 molar ratio; 20 mM Hepes-NaOH pH 7.5, 150 mM NaCl, 2 mM CaCl2, 0.005% Tween-20; SDS-PAGE with Coomassie staining; both purified

binding: binds
B1: human LRRTM2 LRR domain, wild type (domain or fragment, UniProt O43300 34-371)
chain: CPPKCRCEKLLFYCDSQGFHSVPNATDKGSLGLSLRHNHITELERDQFASFSQLTWLHLDHNQISTVKEDAFQGLYKLKELILSSNKIFYLPNTTFTQLINLQNLDLSFNQLSSLHPELFYGLRKLQTLHLRSNSLRTIPVRLFWDCRSLEFLDLSTNRLRSLARNGFAGLIKLRELHLEHNQLTKINFAHFLRLSSLHTLFLQWNKISNLTCGMEWTWGTLEKLDLTGNEIKAIDLTVFETMPNLKILLMDNNKLNSLDSKILNSLRSLTTVGLSGNLWECSARICALASWLGSFQGRWEHSILCHSPDHTQGEDILDAVHGFQLCWNLSTTVTVMA

Results are given in words; binding and its absence hold for the method and conditions named. A result given as binding can be weak or reduced; the word gives no strength.
